According to the supplement of paper PMC10403144:
This is one part of the list.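 Rule for the calls: active = mitochondrial OCR inhibition above 30% at 1 uM; inactive = 30% or less.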 Many values rest on one well or one pass, so single values are uncertain.

These compounds were tested on Toxoplasma gondii RH tachyzoites (assay: inhibition of mitochondrial O2 consumption rate (% inhibition (relative to pre-injection OCR and atovaquone/antimycin A control)); higher = stronger ETC inhibition). Conditions: 1 µM; injection port (sequential injection order): A.

| SMILES | inhibition of mitochondrial O2 consumption rate |
| --- | --- |
| Nc1ncnc2[nH]nc(Cc3cccc4ccccc34)c12 | inactive: -9.22 |
| CS(=O)(=O)c1cccc(-c2cnc3[nH]cc(-c4ccc(CCC(=O)O)cc4)c3c2)c1 | inactive: 5.37 |
| CN(C(=O)c1cc2c(-c3cncnc3)cccc2[nH]1)c1ccccc1 | inactive: -2.59 |
| N#Cc1nc(-c2ccccc2)oc1S(=O)(=O)c1ccc(Cl)cc1 | inactive: -7.5 |
| CC(C)(C)OC(=O)N1CCC(Cn2nc(-c3cnc4ccccc4c3)c3c(N)ncnc32)CC1 | inactive: -4.94 |
| CCC(=O)Nc1ccccc1C(=O)Nc1ccccn1 | inactive: 3.71 |
| O=C(Nc1ccc(N2CCNCC2)cc1)c1ccn2ncc(-c3cccc(Cl)c3)c2n1 | inactive: -3.31 |
| CC(=O)N(CCN(C(=O)c1ccc(F)cc1)c1ccccc1)c1ccccc1 | inactive: -2.87 |
| Cc1cc(NC(=O)c2ccc(S(=O)(=O)N(Cc3ccccc3)C(C)C)cc2)no1 | inactive: -7.63 |
| c1csc(-c2cnc3sc(NCC4CCOCC4)nn23)c1 | inactive: -7.39 |

Same assay, conditions: 1 µM; injection port (sequential injection order): B

| SMILES | inhibition of mitochondrial O2 consumption rate |
| --- | --- |
| CC(C)C(NC(=O)Cc1cccc2ccccc12)C(=O)Nc1cccc(C#N)c1 (stereo not drawn) | inactive: 3.72 |
| Cc1cnc(N2CCN[C@@H](Cc3ccccc3)C2)nc1Oc1ccc(-n2ccnc2)cc1 | inactive: -12 |
| COC(=O)c1c(NC(=O)c2cc3ccccc3oc2=O)sc2c1CCN(Cc1ccccc1)C2 | inactive: 5.06 |
| CC(C)N=c1cc2n(-c3ccc(Cl)cc3)c3ccccc3nc-2cc1Nc1ccc(Cl)cc1 | inactive: -2.01 |
| N=C(N)c1ccc(OCCCCCOc2ccc(C(=N)N)cc2)cc1 | inactive: -0.737 |
| COc1cccc(-n2nnnc2S(C)(=O)=O)c1 | inactive: 6.65 |
| COc1ccccc1C(C)NCC(=O)Nc1cc(C(F)(F)F)ccc1Cl (stereo not drawn) | inactive: -6.07 |
| Cc1ccc(C(=O)Nc2ccc(S(=O)(=O)O)c3cc(S(=O)(=O)O)cc(S(=O)(=O)O)c23)cc1NC(=O)c1cccc(NC(=O)Nc2cccc(C(=O)Nc3cc(C(=O)Nc4ccc(S(=O)(=O)O)c5cc(S(=O)(=O)O)cc(S(=O)(=O)O)c45)ccc3C)c2)c1 | inactive: -2.54 |
| O=C(C(Cc1c[nH]c2ccccc12)NS(=O)(=O)c1ccc(Cl)cc1)N1CCCCC1 (stereo not drawn) | inactive: -11.2 |
| O=C([C@@H](c1ccc(Cl)cc1)c1cccnc1)N1CCN(c2ccc(C(F)(F)F)cc2)CC1 | inactive: -1.47 |
| Cc1cc(O)nc(-n2nc(C)cc2C)n1 | inactive: -10.5 |

Taken from above.
Value for CC(C)N=c1cc2n(-c3ccc(Cl)cc3)c3ccccc3nc-2cc1Nc1ccc(Cl)cc1 under inhibition of mitochondrial O2 consumption rate: inactive: -2.01
Value for COc1ccccc1C(C)NCC(=O)Nc1cc(C(F)(F)F)ccc1Cl (stereo not drawn) under inhibition of mitochondrial O2 consumption rate: inactive: -6.07

Same assay, conditions: 1 µM; injection port (sequential injection order): C

| SMILES | inhibition of mitochondrial O2 consumption rate |
| --- | --- |
| COc1ccc(N(CCc2cccc(C)n2)C(=O)C2CCCCC2)cc1 | inactive: -21.4 |
| CC(C)(C)OC(=O)N1CCN(c2cc(-c3ccc(Oc4ccccc4)cc3)n[nH]2)CC1 | inactive: -10.5 |
| COc1ccc2nc(C)cc(OCC(=O)Nc3ccccc3OC)c2c1 | inactive: -10.9 |
| N=C(N)Nc1ccc(-c2ccc(-c3ccc(N=C(N)N)c(Cl)c3)o2)cc1Cl | inactive: 7.92 |
| COc1cc(C(F)(F)F)nc2ccc(C)c(N)c12 | inactive: -16.8 |
| Cc1cc(Cl)ccc1NC(=O)CCc1ccc(S(=O)(=O)NCC(C)C)cc1 | inactive: -16 |
| Cn1c(=O)c2c(S(C)(=O)=O)snc2n(C)c1=O | inactive: -38.4 |
| Cc1nc(-c2cccc(NCc3ccccc3)c2)[nH]c1C | inactive: -17 |
| CC(C)(C)c1cc(C(=O)N2CCN(c3nccnc3C#N)CC2)n(Cc2ccccc2)n1 | inactive: -22.8 |
| Nc1ncnc2c1ncn2[C@@H]1O[C@H](COS(=O)(=O)NC(=O)c2ccccc2O)[C@@H](O)[C@H]1O | inactive: -27 |
| CCCc1ccc(S(=O)(=O)Nc2ccc(CN3CCN(CC4CC4)CC3)cc2)cc1 | inactive: 0.475 |
| CC(C)(C)c1cnc(NC(=O)c2ccccc2O)s1 | inactive: -6.79 |
| CCN(CC)CCCN1CCN(C(=O)c2cccc(-c3noc(C(F)(F)F)n3)c2)CC1 | inactive: -24.3 |
| CCN(CC)S(=O)(=O)c1ccc(C(=O)Nc2cc(C)nn2-c2nc(C)c(C)c(=O)[nH]2)cc1 | inactive: 1.66 |
| COc1cc(CN2CCC3(C=Cc4ccccc43)CC2)cc2c1OCO2 | inactive: -24.1 |
| Cc1nn(C)cc1C(C)Nc1nncc(-c2ccc(C(F)(F)F)cc2)n1 (stereo not drawn) | inactive: -18.1 |
| CC(C)=CCC/C(C)=C\CNCCNC1C2CC3CC(C2)CC1C3 (stereo not drawn) | inactive: -19.3 |
